The list shows a part of the results.
These compounds were tested on T1, CTL2-GFP (C. trachomatis L2/434/Bu, GFP-expressing). Settings: bulk GFP, single well; 28.5 h, 10 µM; inhibitor.
T1 construct: L2/434/Bu, GFP-expressing
Set-up: species or system HeLa; Intracellular C. trachomatis growth in HeLa cells, bulk GFP fluorescence relative to DMSO

| Compound | % of control remaining [%] |
| --- | --- |
| O=C(c1ccccc1)N1C[C@@H](c2ccsc2)[C@@H]2CN(Cc3ccccc3)CC[C@@H]21 [CBK285602] | 89.0803 |
| CC(C)[C@@H](CO)Nc1cncc(-c2cccnc2)n1 [CBK065467] | 79.7098 |
| C#CCN(C1CCc2ccccc21)S(=O)(=O)c1cc(C(N)=O)n(C)c1 (stereo not drawn) [CBK304287] | 133.004 |
| O=C(CCN1C(=O)C2C3CCC(C3)C2C1=O)OCC(=O)c1ccc(-c2ccccc2)cc1 (stereo not drawn) [CBK265113] | 162.131 |
| CN(C)CCN1CCN(c2nccnc2-c2cccc(CO)c2)CC1 [CBK037047] | 151.429 |
| c1ccc(CNc2nccn3ccnc23)nc1 [CBK037526] | 148.077 |
| Cc1ccnc(NCC2CCN(c3cc(=O)n4oc(C)cc4n3)C2)c1 (stereo not drawn) [CBK305191] | 150.997 |
| COc1cncc(-c2cnc(N)c(NC3CCOCC3)n2)c1 [CBK063846] | 107.269 |
| Cn1cncc1C(=O)N1CCN(Cc2ccccc2)CC1 [CBK200178] | 113.675 |
| Cc1ccccc1-n1ccn(C(=O)CCC2CCCC2)c1=O [CBK106571] | 118.888 |
| O=C(c1ccccc1F)N1CCC(c2cc3ncccc3[nH]2)CC1 [CBK283391] | 131.769 |
| c1cc(-c2nccnc2OCCn2ccnc2)ccn1 [CBK106737] | 105.287 |
| Cc1cc2c3c(c1)c1c(n3CCC2)CCNCC1 [CBK018380C] | 86.1706 |
| CCC(C)N1CCN(S(=O)(=O)c2ccccc2[N+](=O)[O-])CC1 (stereo not drawn) [CBK264270G] | 100 |
| Cc1ccc(CSCC(=O)N2CCC(Cc3ccccc3)CC2)cc1 [CBK058739] | 109.158 |
| COc1ccc(Cn2nc(NC(=O)OC(C)C)c3ccccc32)cc1 [CBK048404] | 177.172 |
| Cc1ccc(-c2cncc(N3CCN(CCO)CC3)n2)cc1C [CBK065912] | 135.116 |
| CC(=O)C1=C(c2ccccc2)NC(=S)NC1c1cc(Cl)ccc1OCC(=O)O (stereo not drawn) [CBK267300] | 132.472 |
| Cc1nc(CC(=O)OC(C)C(=O)N2CCCc3ccccc32)cs1 (stereo not drawn) [CBK305285] | 101.971 |
| CC1=Nc2ccc(Cl)cc2C(C)(C)O1 [CBK022763C] | 124.408 |
| COc1ccc(/C=N/NC(=O)CCc2c(C)n[nH]c2C)cc1O [CBK262894] | 113.182 |
| O=C(CCn1c(C(F)F)cc2cccnc21)NCc1ccc(F)cc1 [CBK285067] | 89.0435 |
| O=C(Cn1nnc2ccccc2c1=O)NCC(F)(F)F [CBK304533] | 147.255 |
| COc1ccc(-c2cccc(Nc3cccnc3)n2)cc1OC [CBK037644] | 120.012 |
| Cc1c(C)n(C)c2nc(N3CCCC3)nc(N3CCCC3)c12 [CBK016683C] | 100 |
| CCc1nc2ccc(C(=O)NCCOc3ccc(OC)cc3)cn2c1N(C)CC [CBK145504] | 155.992 |

| Compound | % of control remaining [%] |
| --- | --- |
| O=C(O)COc1ccc(S(=O)(=O)N2CCCCC2)cc1Cl [CBK268419] | 107.797 |
| O=c1oc(-c2cccc(F)c2)nc2ccc(Cc3ccc4nc(-c5cccc(F)c5)oc(=O)c4c3)cc12 [CBK262856] | 101.693 |
| CCOc1ccccc1-c1ccccc1NC(=O)c1cc(=O)n(C)c2ccccc12 [CBK285843] | 106.628 |
| Cn1cnnc1C1CCCN(C(=O)NCc2cccc(F)c2)C1 (stereo not drawn) [CBK305792] | 111.484 |
| CCc1cccc2c(CC(=O)NC3CCCOC3)c(C)[nH]c12 (stereo not drawn) [CBK282584] | 118.534 |
| Cc1c(C(=O)N2CCN(C3CCCCC3)C(=O)C2)[nH]c2ccccc12 [CBK282539] | 111.939 |
| O=C(NC1CCCc2nc(N3CCC(CO)CC3)ncc21)C1CCCC1 (stereo not drawn) [CBK307415] | 105.033 |
| Cc1ccccc1CN1CCCN(C(=O)CCNC(=O)c2ccco2)CC1 [CBK297718] | 147.943 |
| COC1CCC(C(=O)Nc2cnc(-c3cccc(OC(F)(F)F)c3)c(-c3cccnc3)n2)CC1 (stereo not drawn) [CBK036754] | 176.656 |
| c1csc(-c2cncc(NCCCN3CCOCC3)n2)c1 [CBK065623] | 140.174 |
| C[C@H]1[C@@H]2[C@@H](O)C([C@H](C)C(=O)N3CCCC3)CC[C@@]2(C)CC[C@@H]1NC(=O)c1ccncc1 (stereo partly drawn) [CBK289450] | 115.337 |
| N#CCCN(C(=O)Nc1ccc2c(c1)OCCO2)C1CCCCC1 [CBK156364] | 137.765 |
| O=C(Nc1cc(-c2nc3ncccc3o2)ccc1Cl)c1cccnc1 [CBK269700] | 136.315 |
| OCCOc1ccccc1N1CCOCC1 [CBK001767C] | 91.3146 |
| COc1c(C)cnc(COC(=O)N2CCOCC2)c1C [CBK200145] | 192.847 |
| CCOCC1CCN(C(=O)c2ncsc2Nc2cccnc2)C1 (stereo not drawn) [CBK304514] | 91.4412 |
| CC(C)CC(CC(C)C)OCC(=O)NCC1(c2ccc3ccccc3c2)CCC1 [CBK067404] | 104.655 |
| O=C(C1=C(O)C(=O)N(c2ncccn2)C1c1cccc([N+](=O)[O-])c1)c1ccc(F)cc1 (stereo not drawn) [CBK264932] | 120.691 |
| O=C(Cn1cc(C(=O)COc2ccccc2)c2ccccc21)Nc1ccccc1 [CBK267653] | 75.6299 |
| CC(Nc1oc(-c2ccco2)nc1S(=O)(=O)c1ccc(F)cc1)c1ccccc1 (stereo not drawn) [CBK267671] | 124.123 |
| Clc1ccccc1-c1nccnc1OC(c1ccccc1)c1ccccc1 [CBK107002] | 69.0632 |
| CC(C)(C)C(=O)NCCn1nc(-c2cccs2)ccc1=O [CBK283839] | 93.1545 |
| Cc1nc(-c2cccnc2)[nH]c(=O)c1CC(=O)N(C)CC1CCCCC1 [CBK305785] | 130.677 |
| CCC(c1cccc(OC)c1)N(C)C(=O)CC1CCN(c2nc(C)cc(C)n2)CC1 (stereo not drawn) [CBK286255] | 123.944 |
| Cc1cc(NC(=O)c2ccc(C(C)(C)C)cc2)nc2c1c(=O)oc1ccccc12 [CBK291200] | 85.471 |

Quoted from the listing:
For % of control remaining [%], `O=C(O)COc1ccc(S(=O)(=O)N2CCCCC2)cc1Cl` [CBK268419] shows 107.797
For % of control remaining [%], `O=C(C1=C(O)C(=O)N(c2ncccn2)C1c1cccc([N+](=O)[O-])c1)c1ccc(F)cc1` (stereo not drawn) [CBK264932] shows 120.691
For % of control remaining [%], `O=C(Nc1cc(-c2nc3ncccc3o2)ccc1Cl)c1cccnc1` [CBK269700] shows 136.315
